Data as given in PubChem BioAssay AID1259254 (NCATS, 2017)
Purpose: 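Gene knock-downs that lead to re-replication, shown by excess G2 DNA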 (primary screen). System: human HCT116 colorectal cancer cells. Knock-down reagent: single siRNA against human genes. Time to read-out: 3 days. Measured: 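Nuclei stained with Hoechst and imaged; cell-cycle phase assigned by DNA content; G2 share scaled per plate, non-targeting siRNA 0%, GMNN siRNA 100%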. Scale: G2 robust z-score and G2 cells, % of GMNN control: higher = more G2 cells, more excess DNA replication; raw share of cells in G2: higher = larger share of cells with G2 DNA content. Hit rule: 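An siRNA counts as active if its G2 robust z-score lies at least 5 MADs above the screen median; here such calls match roughly 38% of GMNN control or more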.
This is a random part of about 59,000 reagents tested. Of all reagents, about 1,550 (2.6%) got an active call. 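G2 share is only a proxy for re-replication; each gene was hit by three separate siRNAs, and active genes were retested.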 The raw values are shown without normalisation. Unmarked entries are inactive. The numbers tell different reagents against one gene apart. Not given: the amount of reagent.

Target gene | siRNA no. | G2 robust z-score | G2 cells, % of GMNN control | raw share of cells in G2 (%)
AGTR1 | 1 | 0.349 | 5.43 | 7.78
AGTR1 | 2 | -0.109 | 2.2 | 5.29
AGTR1 | 3 | 0.0715 | 3.47 | 4.33
TNFAIP6 | 1 | 0.415 | 5.89 | 6.67
TNFAIP6 | 2 | -0.672 | -1.76 | 4.65
TNFAIP6 | 3 | 2.12 | 17.9 | 10.8
SUSD1 | 1 | 2.79 | 22.6 | 14.4
SUSD1 | 2 | 5.18 (active) | 39.4 | 22.3
SUSD1 | 3 | -0.398 | 0.168 | 2.74
ATG4C | 1 | 0.0949 | 3.64 | 6.53
ATG4C | 2 | 0.483 | 6.37 | 6.89
ATG4C | 3 | -0.00496 | 2.93 | 7.03
IARS2 | 1 | 0.102 | 3.68 | 8.04
IARS2 | 2 | -0.411 | 0.0764 | 4.47
IARS2 | 3 | 0.182 | 4.25 | 6.11
ANGEL1 | 1 | -1.2 | -5.49 | 2.32
ANGEL1 | 2 | 0.942 | 9.59 | 7.15
ANGEL1 | 3 | -0.982 | -3.94 | 4.79
CCL19 | 1 | 0.263 | 4.81 | 5.55
CCL19 | 2 | 1.53 | 13.7 | 10.3
CCL19 | 3 | -0.786 | -2.57 | 3.67
FBXL7 | 1 | 2.51 | 20.6 | 13.1
FBXL7 | 2 | -0.822 | -2.82 | 2.97
FBXL7 | 3 | -0.477 | -0.388 | 3.03
NEUROG2 | 1 | 0.39 | 5.71 | 6.3
NEUROG2 | 2 | 1.65 | 14.6 | 11.7
NEUROG2 | 3 | -0.601 | -1.26 | 3.9
KIF19 | 1 | -0.651 | -1.61 | 4.27
KIF19 | 2 | -0.0397 | 2.69 | 5.5
KIF19 | 3 | 1.54 | 13.8 | 12.1
ENTR1 | 1 | 0.704 | 7.92 | 8.09
ENTR1 | 2 | 0.35 | 5.43 | 6.38
ENTR1 | 3 | -0.754 | -2.34 | 2.3
JAKMIP1 | 1 | 0.359 | 5.49 | 5.67
JAKMIP1 | 2 | 0.151 | 4.03 | 4.16
JAKMIP1 | 3 | -0.442 | -0.143 | 3.02
SLC12A1 | 1 | -0.44 | -0.129 | 3.91
SLC12A1 | 2 | 1.68 | 14.8 | 10.7
SLC12A1 | 3 | -1.11 | -4.84 | 2.89
TNRC6C | 1 | -0.81 | -2.73 | 3.27
TNRC6C | 2 | -0.562 | -0.99 | 3.99
TNRC6C | 3 | -0.743 | -2.26 | 2.31
ABHD13 | 1 | -0.0731 | 2.45 | 3.7
ABHD13 | 2 | -1.08 | -4.61 | 2.13
ABHD13 | 3 | -0.357 | 0.455 | 3.14
SRGAP2C | 1 | -0.104 | 2.23 | 4.3
SRGAP2C | 2 | -0.742 | -2.26 | 2.34
SRGAP2C | 3 | 0.724 | 8.06 | 5.17
WNT2B | 1 | -0.547 | -0.884 | 4.74
WNT2B | 2 | 2.23 | 18.7 | 11.3
WNT2B | 3 | -0.492 | -0.493 | 3.17
ADIG | 1 | 0.16 | 4.09 | 5.2
ADIG | 2 | 2.52 | 20.7 | 9.31
ADIG | 3 | -0.938 | -3.63 | 1.8
CCDC181 | 1 | 2.87 | 23.1 | 13.5
CCDC181 | 2 | -0.191 | 1.63 | 5.24
CCDC181 | 3 | 1.07 | 10.5 | 6.35
PTP4A3 | 1 | -0.0362 | 2.71 | 5.68
PTP4A3 | 2 | -0.213 | 1.47 | 4.74
PTP4A3 | 3 | 4.2 | 32.5 | 13.3
RHCG | 1 | 0.799 | 8.59 | 9.85
RHCG | 2 | -0.0434 | 2.66 | 5.23
RHCG | 3 | 0.0192 | 3.1 | 4.99
DNM1L | 1 | 7.29 (active) | 54.2 | 25.7
DNM1L | 2 | -0.544 | -0.862 | 4.4
DNM1L | 3 | 1.78 | 15.5 | 8.5
ANGPT1 | 1 | 0.469 | 6.27 | 6.85
ANGPT1 | 2 | -0.745 | -2.28 | 4.26
ANGPT1 | 3 | 3.7 | 29 | 14.8

Active calls, among the entries above:
Target gene | siRNA no. | G2 robust z-score | G2 cells, % of GMNN control | raw share of cells in G2 (%)
SUSD1 | 2 | 5.18 (active) | 39.4 | 22.3
DNM1L | 1 | 7.29 (active) | 54.2 | 25.7
